Values from PubChem BioAssay AID1259424 (University of Nebraska Medical Center, 2018)
Purpose: 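Rank knockdowns across the genome by resemblance to the KSR1 depletion profile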 (primary screen). System: human HCT116 colon cancer cells. Reagent: siRNA pool against human genes, 50 nM. Measurement: 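Log2 levels of six mRNAs (branched-DNA multiplex), adjusted by two reference genes and the non-targeting median, then scored against the average KSR1 knockdown pattern as Pearson r and euclidean distance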. Scale: mean correlation with KSR1 profile: higher = expression change more like KSR1 knockdown.
This is a random part of about 14,000 deposited reagents. 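Higher correlation or smaller distance means closer resemblance to KSR1 loss; control wells, including KSR1 knockdowns, recur on many plates.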 Some reagents were tested in more than one well and are listed for each. Further read-outs or replicates are left out here. The record does not give: the time to read-out.

With knock-down of INSL3 (insulin like 3) [SID363996443] the results were mean correlation with KSR1 profile -0.221.
Knock-down of GRAP2 (GRB2 related adaptor protein 2) [SID363995764] came out at: mean correlation with KSR1 profile -0.192.
CCK (cholecystokinin) [SID363992026] showed mean correlation with KSR1 profile 0.128.
Depletion of MRPL28 (mitochondrial ribosomal protein L28) [SID363997239] came out at: mean correlation with KSR1 profile -0.573.
After knock-down of IGFALS [SID363995912] the results were mean correlation with KSR1 profile 0.488.
With knock-down of NAA38 (N-alpha-acetyltransferase 38, NatC auxiliary subunit) [SID364003940], the record shows mean correlation with KSR1 profile 0.677.
After knock-down of DHFRP3 (dihydrofolate reductase pseudogene 3) [SID363991352], the screen gave mean correlation with KSR1 profile -0.0906.
FRA10AC1 (FRA10A associated CGG repeat 1) [SID364004656] showed mean correlation with KSR1 profile -0.351.
After knock-down of TAL2 (TAL bHLH transcription factor 2) [SID363996327], the record shows mean correlation with KSR1 profile 0.541.
DLST (dihydrolipoamide S-succinyltransferase) [SID363993146] showed mean correlation with KSR1 profile 0.104.
DUS1L (dihydrouridine synthase 1 like) [SID364002380] scored mean correlation with KSR1 profile -0.211.
Knock-down of RPS27 (ribosomal protein S27) [SID363992327] gave: mean correlation with KSR1 profile 0.119.
Against PTPRC (protein tyrosine phosphatase receptor type C) [SID363993994], the values are mean correlation with KSR1 profile -0.0961.
Depletion of HPX (hemopexin) [SID363991931] came out at: mean correlation with KSR1 profile -0.567.
Depletion of THTPA (thiamine triphosphatase) [SID364005416] resulted in: mean correlation with KSR1 profile -0.0161.
SH3BP2 (SH3 domain binding protein 2) [SID363994172] scored mean correlation with KSR1 profile -0.195.
OR1J2 (olfactory receptor family 1 subfamily J member 2) [SID364005499] scored mean correlation with KSR1 profile -0.514.
Silencing of OR1J2 (olfactory receptor family 1 subfamily J member 2) [SID364005499] gave: mean correlation with KSR1 profile 0.839.
After knock-down of DCLRE1A (DNA cross-link repair 1A) [SID363999168] the results were mean correlation with KSR1 profile -0.0231.

Taken from above.
Entry of DCLRE1A (DNA cross-link repair 1A) [SID363999168] in “mean correlation with KSR1 profile”: -0.0231
Result for IGFALS [SID363995912] under “mean correlation with KSR1 profile”: 0.488
